In the supplement of paper PMC8104966:
The other results are listed elsewhere or left out. Repeats in this data set agree poorly, so a single value says little.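 U2OS cells carrying ACE2 were mixed with U2OS cells carrying full-length spike, and fusion was scored by imaging as the share of nuclei showing both cell types' fluorescent markers. A compound counts as an inhibitory hit when it is non-toxic and its fusion z-score falls below -3, meaning more than three standard deviations below the plate's DMSO wells.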

tested on: U2OS ACE2 x SARS-CoV-2 spike co-culture; assay: cell-cell fusion (fraction fused) z-score vs plate DMSO control; higher = more fusion; conditions: 30 µM; 5 h; toxicity class: non-toxic, passed QC

Compound	cell-cell fusion (z-score)
COc1ccc2nc(SCc3ncc(C)c(OC)c3C)[nH]c2c1 [Omeprazole sulfide]	inactive: 2.48
N=C([NH3+])N1CCc2ccccc2C1.N=C([NH3+])N1CCc2ccccc2C1.O=S(=O)([O-])[O-] [Debrisoquin sulfate]	inactive: 1.08
CCn1c(-c2nonc2N)nc2cnc(Oc3cccc(NC(=O)c4ccc(OCCN5CCOCC5)cc4)c3)cc21	inactive: -2.39
NC[C@@H]1O[C@H](O[C@H]2[C@@H](O)[C@H](O[C@@H]3[C@@H](O)[C@H](N)C[C@H](N)[C@H]3O[C@H]3O[C@H](CN)[C@@H](O)[C@H](O)[C@H]3N)O[C@@H]2CO)[C@H](N)[C@@H](O)[C@@H]1O.O=S(=O)(O)O.O=S(=O)(O)O.O=S(=O)(O)O [Neomycin sulfate]	inactive: 3.61
COc1cc(Cc2cnc(N)nc2N)cc(OC)c1OC	inactive: 2.21
Cc1cc(O)c(C(=O)N[C@@H](C(=O)N[C@@H]2C(=O)N3C(C(=O)O)=C(CSc4nnnn4C)CS[C@H]23)c2ccc(O)cc2)cn1 [Cefpiramide acid]	inactive: 2.96
O=[N+]([O-])c1ccc(CNc2nc(NCc3cccc(C(F)(F)F)c3)nc3[nH]cnc23)cc1	active: -3
Cn1cc[nH]c1=S [Methimazole]	inactive: 3.28
CCCCCCOC(=O)/N=C(\N)c1ccc(NCc2nc3cc(C(=O)N(CCC(=O)OCC)c4ccccn4)ccc3n2C)cc1.CS(=O)(=O)O	inactive: 0.941
Cc1cnc(C(=O)NCCc2ccc(S(=O)(=O)NC(=O)NC3CCCCC3)cc2)cn1 [Glipizide]	inactive: 4.3
CCOC(=O)N[C@@H]1CC[C@@H]2[C@@H](C1)C[C@H]1C(=O)O[C@H](C)[C@H]1[C@H]2/C=C/c1ccc(-c2cccc(F)c2)cn1.O=S(=O)(O)O [Vorapaxar sulfate]	active: -5.27
Cc1ccc(NC(=O)C2(c3ccc4c(c3)OC(F)(F)O4)CC2)nc1-c1cccc(C(=O)O)c1 [Lumacaftor]	inactive: 3.8
CCOc1ccc(C(=O)c2ccc(O)c(O)c2O)cc1	inactive: 1.19
COc1cc([C@@H]2c3cc4c(cc3[C@H](O)[C@H]3COC(=O)[C@@H]23)OCO4)cc(OC)c1OC	inactive: -0.222
O=C1C[C@@H](c2ccc(O)cc2)Oc2cc(O)cc(O)c21	inactive: 2.58
CC(C)CCCC(C)C1CCC2C3CC[C@H]4C[C@H](O)CC[C@]4(C)C3CC[C@]12C (stereo partly drawn)	inactive: 2.35
CC1=CC(=O)c2c(O)cccc2C1=O	inactive: 1.78
Cc1cc(-n2c(=O)[nH]c(=O)n(C)c2=O)ccc1Oc1ccc(SC(F)(F)F)cc1	inactive: 1.86
C1CCN2C[C@@H]3C[C@H](CN4CCCC[C@@H]34)[C@H]2C1.O=S(=O)(O)O	inactive: 0.195
CC(C)(C)NCC(O)COc1cccc2c1C[C@H](O)[C@H](O)C2 (stereo partly drawn)	inactive: 0.194
Cn1c(=O)c2c(nc(/C=C/c3cccc(Cl)c3)n2C)n(C)c1=O [8-(3-Chlorostyryl)caffeine]	inactive: 2.76

Compound	cell-cell fusion (z-score)
NC(=O)CS(=O)C(c1ccccc1)c1ccccc1 (stereo not drawn)	inactive: 2.23
CC(=O)Nc1nc(C)c(-c2ccc(Cl)c(S(=O)(=O)NCCO)c2)s1	inactive: 0.284
CCOC(=O)OC(C)OC1=C(C(=O)Nc2ccccn2)N(C)S(=O)(=O)c2ccccc21 (stereo not drawn)	inactive: 1.75
CC(=O)[C@H]1CCC2C3CC=C4C[C@@H](OC(=O)CCC(=O)O)CC[C@]4(C)C3CC[C@@]21C (stereo partly drawn)	inactive: 2.98
O=C(Nc1cccc(C(=O)Nc2ccc(S(=O)(=O)[O-])c3cc(S(=O)(=O)[O-])cc(S(=O)(=O)[O-])c23)c1)Nc1cccc(C(=O)Nc2ccc(S(=O)(=O)[O-])c3cc(S(=O)(=O)[O-])cc(S(=O)(=O)[O-])c23)c1.[Na+].[Na+].[Na+].[Na+].[Na+].[Na+]	inactive: 3.31
CC(=O)Oc1cccc(C)c1 [meta-CRESYL ACETATE]	inactive: 2.77
CC1=NN(c2cccc(C(=O)O)c2)C(=O)/C1=C\c1ccc(-c2ccc(Cl)c(C(=O)O)c2)o1	inactive: 2.99
COC(=O)N[C@H](C(=O)N1CC2(CC2)C[C@H]1c1ncc(-c2ccc3c(c2)C(F)(F)c2cc(-c4ccc5nc([C@@H]6[C@H]7CC[C@H](C7)N6C(=O)[C@@H](NC(=O)OC)C(C)C)[nH]c5c4)ccc2-3)[nH]1)C(C)C [Ledipasvir]	inactive: 0.332
Cc1cc(=O)n(-c2ccccc2)n1C	inactive: 1.72
CCOCCn1c(N2CCCN(C)CC2)nc2ccccc21 [Emedastine]	inactive: 2.25
CN1CCC[C@H]1c1cccnc1 [Nicotine]	inactive: 0.962
O=C1c2c(O)cc(O)cc2O[C@H](c2ccc(O)c(O)c2)[C@H]1O (racemic) [(±)-Taxifolin]	inactive: -1.07
Cl.NCc1ccc(S(N)(=O)=O)cc1	inactive: 0.264
CC(C)NC[C@@H](C(=O)N1CCN(c2ncnc3c2[C@H](C)C[C@H]3O)CC1)c1ccc(Cl)cc1	inactive: -0.861
Cc1ccc([C@@H]2O[C@H](CO)[C@@H](O)[C@H](O)[C@H]2O)cc1Cc1ccc(-c2ccc(F)cc2)s1 [Canagliflozin]	active: -4.3
C=C(C)C1Cc2c(ccc3c(=O)c4c(oc23)COc2cc(OC)c(OC)cc2-4)O1 (stereo not drawn)	inactive: 1.92
COc1ccc(Cl)cc1C(=O)NCCc1ccc(S(=O)(=O)NC(=O)NC2CCCCC2)cc1 [Glybenclamide]	inactive: -0.386
Cc1ncc([N+](=O)[O-])n1CCO [Metronidazole]	inactive: 2.46
Cc1ccc(-c2nc3ccc(C)cn3c2CC(=O)N(C)C)cc1	inactive: 3.47
O=C(CCNNC(=O)c1ccncc1)NCc1ccccc1	inactive: 2.36
O=C(CCNNC(=O)c1ccncc1)NCc1ccccc1 [Nialamide]	inactive: 1.82

Compound	cell-cell fusion (z-score)
Cc1sc2ccccc2c1CC1=NCCN1.O=C(O)C(=O)O [Benazoline oxalate]	inactive: 1.67
C[C@@H]1O[C@@H](O[C@H]2CC[C@]3(C=O)C4CC[C@]5(C)[C@@H](C6=CC(=O)OC6)CC[C@]5(O)C4CC[C@]3(O)C2)[C@H](O)[C@H](O)[C@H]1O (stereo partly drawn)	inactive: 0.936
COc1cc(C(=S)N2CCOCC2)ccc1O	inactive: 2.46
CC(C[N+](C)(C)C)OC(N)=O.[Cl-] (stereo not drawn)	inactive: -0.339
CC(C[N+](C)(C)C)OC(N)=O.[Cl-] (stereo not drawn) [Bethanechol chloride]	inactive: 1.11
O=C(O)c1ccccc1Nc1cccc(OCc2ccc3ccccc3n2)c1	inactive: 1.98
O.O=C(Nc1cccnc1)N1CCC(Cc2cccc(Oc3ccc(C(F)(F)F)cn3)c2)CC1	inactive: -0.789
CCc1cc2c(cc1CC)CC(NC[C@H](O)c1ccc(O)c3[nH]c(=O)ccc13)C2 [Indacaterol]	active: -7.96
C[C@]12CCC3c4ccc(OS(=O)(=O)[O-])cc4CCC3C1CC[C@H]2O.[Na+] (stereo partly drawn)	inactive: 3.17
CC(C)(O)[C@@H]1CC[C@](C)([C@H]2[C@@H](O)C[C@@]3(C)C4C[C@H](O[C@@H]5O[C@H](CO)[C@@H](O)[C@H](O)[C@H]5O)C5C(C)(C)[C@@H](O[C@@H]6OC[C@@H](O)[C@H](O)[C@H]6O)CC[C@@]56C[C@@]46CC[C@]23C)O1 (stereo partly drawn)	inactive: 1.84
CO[C@H]1C[C@@H]2CC[C@@H](C)[C@@](O)(O2)C(=O)C(=O)N2CCCC[C@H]2C(=O)O[C@H]([C@H](C)C[C@@H]2CC[C@@H](OCCO)[C@H](OC)C2)CC(=O)[C@H](C)/C=C(\C)[C@@H](O)[C@@H](OC)C(=O)[C@H](C)C[C@H](C)/C=C/C=C/C=C/1C [Everolimus]	active: -10.2
CC(=O)OCC(=O)[C@@]1(O)CCC2C3CC[C@@H]4C[C@H](O)CC[C@]4(C)C3C(=O)C[C@@]21C (stereo partly drawn)	inactive: 3.31
CNCCCC12CCC(c3ccccc31)c1ccccc12.Cl	inactive: -1.43
CC(=O)O.CC1/C=C/C=C/C=C/C=C/C=C/C=C/C=C/C(O[C@@H]2O[C@H](C)[C@H](O)[C@@H](O)[C@@H]2N)CC(O)C(C(=O)O)C(O)CC(=O)CC(O)CC(O)CC(O)CC(=O)CCCC(=O)CC(=O)OC1C(C)CC(C)C(O)CC(=O)c1ccc(N)cc1 (stereo partly drawn)	inactive: 2.12
CN1CC(O)C(O)C(O)C1CO (stereo not drawn) [N-Methyl-1-deoxynojirimycin]	inactive: 1.89
O=C1NCN(c2ccccc2)C12CCN(CCCC(c1ccc(F)cc1)c1ccc(F)cc1)CC2 [Fluspirilene]	inactive: 1.97
Oc1ccc([C@H]2Oc3cc(O)cc(O)c3C[C@H]2O)cc1	inactive: 2.4
CN(C)C(=O)/N=N/C(=O)N(C)C [N,N,N',N'-Tetramethylazodicarboxamide]	inactive: 1.91
CC1(C)C[C@@H]2C(=O)CC[C@H]3O[C@]3(C)CC[C@H]21	inactive: 1.66
CCCCC1C(=O)N(c2ccccc2)N(c2ccccc2)C1=O	inactive: 2.82
CCCCC1C(=O)N(c2ccccc2)N(c2ccccc2)C1=O [Phenylbutazone]	inactive: 4.55

A second format for part of the listing above:
Compound | cell-cell fusion (z-score)
CNCCCC12CCC(c3ccccc31)c1ccccc12.Cl | inactive: -1.43
CC(=O)O.CC1/C=C/C=C/C=C/C=C/C=C/C=C/C=C/C(O[C@@H]2O[C@H](C)[C@H](O)[C@@H](O)[C@@H]2N)CC(O)C(C(=O)O)C(O)CC(=O)CC(O)CC(O)CC(O)CC(=O)CCCC(=O)CC(=O)OC1C(C)CC(C)C(O)CC(=O)c1ccc(N)cc1 (stereo partly drawn) | inactive: 2.12
CN1CC(O)C(O)C(O)C1CO (stereo not drawn) [N-Methyl-1-deoxynojirimycin] | inactive: 1.89
